Experimental data reported in the supplement of paper PMC4604168 (melanoma cell lines).
The other results are listed elsewhere or left out. Repeats are few or missing, and single values can be far off.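 Cells were imaged in 1,536-well plates, and nuclei stained with an antibody against cleaved PARP were counted against all DNA-stained nuclei to give the apoptosis fraction. Screening doses were chosen to leave most cells alive, and resting and induced cleaved-PARP levels differ strongly between cell lines.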

These molecules were tested on WM451Lu (assay: cleaved PARP positive nuclei fraction relative to DMSO control; melanoma cells; higher = more apoptosis). Conditions: library dose: low library concentration; 72 h.

Row | SMILES | cleaved PARP positive nuclei fraction [%]
1 | C/C(O)=C(\C#N)C(=O)Nc1cc(Br)ccc1Br + O=C(Oc1ccc([N+](=O)[O-])cc1)N1CCC(C(O)(c2ccc3c(c2)OCO3)c2ccc3c(c2)OCO3)CC1 [JZL184] (first compound 2 µM, partner dose 1 µM) | 104
2 | C[As](C)SC[C@H](NC(=O)CC[C@H](N)C(=O)O)C(=O)NCC(=O)O [Darinaparsin] + Cc1cc(N2CCOCC2)cc2[nH]c(-c3c(NC[C@@H](O)c4cccc(Cl)c4)cc[nH]c3=O)nc12 [BMS536924] (first compound 0.4 µM, partner dose 0.2 µM) | 123
3 | N.N.[Cl][Pt][Cl] [cisplatin] + Clc1ccc(Nc2nnc(Cc3ccncc3)c3ccccc23)cc1 [vatalanib] (first compound 1.6 µM, partner dose 2 µM) | 129
4 | C/C(O)=C(\C#N)C(=O)Nc1cc(Br)ccc1Br + O=C1NC(=O)/C(=C/c2ccc(-c3ccc(F)cc3O)o2)S1 [AS252424] (first compound 2 µM, partner dose 1 µM) | 66.8
5 | Cn1cc(C2=C(c3cn(C4CCN(Cc5ccccn5)CC4)c4ccccc34)C(=O)NC2=O)c2ccccc21 [Enzastaurin] + COc1cc2ncnc(Nc3ccc(Oc4ccccc4)cc3)c2cc1OC [SrcI1] (first compound 0.8 µM, partner dose 2 µM) | 117
6 | C[C@]1(c2nc3c(C(N)=O)cccc3[nH]2)CCCN1 [Veliparib] + C/C(O)=C(\C#N)C(=O)Nc1cc(Br)ccc1Br [LFM-A13] (first compound 1.4 µM, partner dose 2 µM) | 48.8
